According to article PMC5951854:
These are yes or no findings as the source states them, for the method shown. Binding seen in cells or lysates may run through a third protein. A result given as binding can be weak or reduced; the word gives no strength. For some of these results: Sequences can lack the tags named with a protein. One block for each molecule: values may come before it.

What was measured:
[1] = target: T1, GST-CD82 WT (mammalian GST fusion) (UniProt P40237); test: pull-down; 293T cells co-transfected (48 h) with mammalian GST-CD82 or truncated mutants and GFP-Rab5 or GFP-Rab22 or their mutants; GST pulldown from lysate, IB with anti-GFP
T1 sequence: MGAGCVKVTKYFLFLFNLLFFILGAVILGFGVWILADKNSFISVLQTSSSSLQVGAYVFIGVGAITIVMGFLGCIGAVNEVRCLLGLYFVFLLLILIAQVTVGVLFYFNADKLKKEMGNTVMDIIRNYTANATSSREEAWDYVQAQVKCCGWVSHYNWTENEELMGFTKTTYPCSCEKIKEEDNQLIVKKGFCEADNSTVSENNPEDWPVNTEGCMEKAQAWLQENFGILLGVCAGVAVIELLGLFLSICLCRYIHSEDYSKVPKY

[2] = target: T2, GST-CD82 truncated mutant, extracellular domain aa32–54 (UniProt P40237); test: as above
T2 sequence: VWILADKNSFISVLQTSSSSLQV

[3] = target: Rab5 (endogenous, mouse BMDMs) (mouse (endogenous in BMDMs)); test: co-IP

binding [1]: no binding
Molecule: GFP-Rab5 S34N (GDP-bound form)

binding [1]: binds
Molecule: GFP-Rab22 Q64L (GTP-bound form)

binding [1]: no binding
Molecule: GFP-Rab22 S19L (GDP-bound form)

binding [1]: binds
Molecule: GFP-Rab5 Q67L (GTP-bound form)

binding [2]: binds weakly
binding [1]: binds
Molecule: GFP-Rab22 WT

binding [3]: binds
B1: Rabenosyn-5 (endogenous, mouse BMDMs) (protein, UniProt Q80Y56 1-783)
chain: MASLDDPGEVREGFLCPLCLKDLQSFYQLQSHYEEEHLEDRDVKGQIKNLVQKARKAKNKLLKREGDDRVEPGTQGYESFSYGGVDPYMWEPQELGAMRSHLSDFKKHRAARIDHYVVEVNKLIIRLEKLTAFDRTNTETSKIRAIEKSVVPWVNDQDVPFCPDCGNKFSIRNRRHHCRLCGSIMCKKCMELIGLPLAHKLTSASKDSLSTHTSPSQSPNSVHGSRRGSISSMSSVSSVLDEKDDDRIRCCTHCKDKLLKREQQMDEKEHTPDIVKLYEKLRLCMEKVDQKAPEYIRMAASLNAGETTYNLEHANDLRVEVQKVYELIDALSKKILTLGLNQDPSPHPNTLRLQRMIRYSATLFVQEKLLGLMSLPTKEQFEELKKKRKQDLEQKRTVERQAALESRRKLEERQSGLASHTANGDVRSLRGIPPPLRKAEGWLPLSEGQGQSEDPDPLLQQIYNITSFIRQAKAAGRTDEVRTLQENLRQLQDEYDQQQTEKAIELSRKQAEEEELQREQLQMLRKRELEREQEQFLAASLQTRTRVLELREVIPFQLEASRGPHIDLSYSLDQDSSPVQSSTAPDILTPGSALAPMHLWSGPPALGQETLPQSTMSQQSDKASLNPFDEDDLSSPTEGAISPAAVEAFLGPPAAVTKEYNPFEEDAEEEEVAELGAGNPFTDPDSPAPNPFDEDDGPRPASPAAPGNPFEECPSTNPFEVDSDSGMEAEEHIEEELLLQQIDNIKAYIFDAKQCGRMDEVEVLTENLRELKCTLAKQKGAPN
